Earlier results, collected in patent US9669025B2 (INFLAMMATORY RESPONSE RESEARCH, INC., priority 2013, dated 2017).

The chains behind the UniProt entries cited, without tags or fusion partners.
UniProt P35367, whole entry: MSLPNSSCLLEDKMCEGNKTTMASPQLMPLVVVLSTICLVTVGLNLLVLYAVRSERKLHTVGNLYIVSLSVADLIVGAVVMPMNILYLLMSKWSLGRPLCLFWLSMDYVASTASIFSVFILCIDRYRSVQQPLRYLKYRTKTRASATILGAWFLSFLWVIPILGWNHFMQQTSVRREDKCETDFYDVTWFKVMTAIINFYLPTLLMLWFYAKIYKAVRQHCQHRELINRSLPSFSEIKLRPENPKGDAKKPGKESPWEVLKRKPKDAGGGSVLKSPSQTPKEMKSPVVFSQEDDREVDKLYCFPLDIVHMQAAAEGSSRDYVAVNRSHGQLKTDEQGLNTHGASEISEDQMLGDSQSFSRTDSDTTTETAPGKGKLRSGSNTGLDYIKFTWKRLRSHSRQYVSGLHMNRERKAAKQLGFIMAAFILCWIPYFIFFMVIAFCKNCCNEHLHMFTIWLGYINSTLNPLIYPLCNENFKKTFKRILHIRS

Experiments:
[1] = in vivo; cited from earlier work
H1 receptor = H1 receptor (Homo sapiens, UniProt P35367); details: cited from earlier work

**Q.** What does the source list for `O=C(O)COCCN1CCN([C@H](c2ccccc2)c2ccc(Cl)cc2)CC1` [levocetirizine]?
**A.** time to peak plasma level [1]: 0.9 h; Receptor affinity in an acidic ph (increased) (H1 receptor): increased 5x
